The values that follow come from publication PMC4046817.

Amino acid sequences for entries named in this document (tags omitted). A change or cut given only in a name is not applied to a line headed by its entry.
UniProt Q7LX67: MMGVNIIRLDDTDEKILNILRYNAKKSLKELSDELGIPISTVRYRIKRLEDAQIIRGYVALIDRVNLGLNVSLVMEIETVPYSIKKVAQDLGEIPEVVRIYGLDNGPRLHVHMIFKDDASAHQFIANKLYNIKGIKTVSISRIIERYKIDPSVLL

Results are given in words; binding and its absence hold for the method and conditions named. Binding calls can cover weak binding; strength is not graded here.

The assay concerns the target T1, LysM, lysine-responsive Lrp-like transcription factor from Sulfolobus solfataricus (Sulfolobus solfataricus) (UniProt Q980W9).
T1 sequence: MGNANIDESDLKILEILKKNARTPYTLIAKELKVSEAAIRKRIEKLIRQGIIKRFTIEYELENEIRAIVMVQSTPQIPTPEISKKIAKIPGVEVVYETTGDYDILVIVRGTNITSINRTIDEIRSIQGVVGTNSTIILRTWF
The assay can be described thus: native gel or EMSA; EMSA with a 32P-labelled 348-bp DNA probe encompassing the Ssot28 target; 40 nM LysM, 320 nM Ss-LrpB, supershift with 500 nM Ss-LrpB-specific nanobody; LrpB binding buffer; LysM is bound to the DNA, Ss-LrpB does not bind this DNA by itself; both purified. Background: A gel shift assay detects complexes by their altered migration in electrophoresis.

For the substance “Ss-LrpB, Lrp-like transcription factor from Sulfolobus solfataricus (from UniProt Q7LX67)”, the binding entry was “binds”.
